{"source": "patent US20220340687A1", "about": "(NOVARTIS AG, priority 2019, published 2022)", "test_system": "pDCs cocultured with naïve CD4+ T cells", "experiment": "Generation of Treg cells by pDCs: omalizumab in comparison to corticosteroids", "type": "cell-based, human", "conditions": "1 μM Dexamethasone; coculture 5 days", "experimental": "After 24 hours, the pDCs were washed and cocultured with naïve CD4+ T cells for 5 days.", "note": "For at least one compound, name, drawing or mass did not settle the structure."}
{"smiles": "C[C@@H]1C[C@H]2[C@@H]3CCC4=CC(=O)C=C[C@]4(C)[C@@]3(F)[C@@H](O)C[C@]2(C)[C@@]1(O)C(=O)CO", "note": "[Dexamethasone]", "values": [{"measurement": "TLR9-L-associated increase of Treg cells", "value": "abolished"}]}
